The results in this text go back to PMC3325209.

Results are given in words; binding and its absence hold for the method and conditions named. Binding seen in cells or lysates may run through a third protein. For part of these data: Binding can be weak; no strength is given. Where a sequence is shown, tags or fusion partners need not be part of it.

Holding throughout (test): split reporter; BiFC with halves of citrine (YN, YC) in N. benthamiana leaves, agroinfiltration at A600 0.05, confocal microscopy at about 38 h post agroinfiltration
In assay [1] the target is P3N domain (N terminus of TuMV P3) fused to the N-terminal half of citrine (Turnip mosaic virus (TuMV)).
For assay [2], the target named is TuMV P3N-PIPO fused to the N-terminal half of citrine (Turnip mosaic virus (TuMV)).
Substrate in assay [3]: PIPO domain of TuMV P3N-PIPO fused to the N-terminal half of citrine (Turnip mosaic virus (TuMV))

B1: Arabidopsis PCaP1 fused to the C-terminal half of citrine (protein, UniProt Q96262 1-225)
chain: MGYWNSKVVPKFKKLFEKNSAKKAAAAEATKTFDESKETINKEIEEKKTELQPKVVETYEATSAEVKALVRDPKVAGLKKNSAAVQKYLEELVKIEFPGSKAVSEASSSFGAGYVAGPVTFIFEKVSVFLPEEVKTKEIPVEEVKAEEPAKTEEPAKTEGTSGEKEEIVEETKKGETPETAVVEEKKPEVEEKKEEATPAPAVVETPVKEPETTTTAPVAEPPKP
With B1, the binding result is given as “no binding” in assay [1], “binds” in assay [2] and “binds” in assay [3].
